Laboratory results reported in paper PMC10522464.
Results are given in words; binding and its absence hold for the method and conditions named. Binding seen in cells or lysates may run through a third protein. Some entries that bind do so weakly or less than the wild type.

Chains of the proteins cited; added tags and fusions are not shown.
UniProt E9Q401: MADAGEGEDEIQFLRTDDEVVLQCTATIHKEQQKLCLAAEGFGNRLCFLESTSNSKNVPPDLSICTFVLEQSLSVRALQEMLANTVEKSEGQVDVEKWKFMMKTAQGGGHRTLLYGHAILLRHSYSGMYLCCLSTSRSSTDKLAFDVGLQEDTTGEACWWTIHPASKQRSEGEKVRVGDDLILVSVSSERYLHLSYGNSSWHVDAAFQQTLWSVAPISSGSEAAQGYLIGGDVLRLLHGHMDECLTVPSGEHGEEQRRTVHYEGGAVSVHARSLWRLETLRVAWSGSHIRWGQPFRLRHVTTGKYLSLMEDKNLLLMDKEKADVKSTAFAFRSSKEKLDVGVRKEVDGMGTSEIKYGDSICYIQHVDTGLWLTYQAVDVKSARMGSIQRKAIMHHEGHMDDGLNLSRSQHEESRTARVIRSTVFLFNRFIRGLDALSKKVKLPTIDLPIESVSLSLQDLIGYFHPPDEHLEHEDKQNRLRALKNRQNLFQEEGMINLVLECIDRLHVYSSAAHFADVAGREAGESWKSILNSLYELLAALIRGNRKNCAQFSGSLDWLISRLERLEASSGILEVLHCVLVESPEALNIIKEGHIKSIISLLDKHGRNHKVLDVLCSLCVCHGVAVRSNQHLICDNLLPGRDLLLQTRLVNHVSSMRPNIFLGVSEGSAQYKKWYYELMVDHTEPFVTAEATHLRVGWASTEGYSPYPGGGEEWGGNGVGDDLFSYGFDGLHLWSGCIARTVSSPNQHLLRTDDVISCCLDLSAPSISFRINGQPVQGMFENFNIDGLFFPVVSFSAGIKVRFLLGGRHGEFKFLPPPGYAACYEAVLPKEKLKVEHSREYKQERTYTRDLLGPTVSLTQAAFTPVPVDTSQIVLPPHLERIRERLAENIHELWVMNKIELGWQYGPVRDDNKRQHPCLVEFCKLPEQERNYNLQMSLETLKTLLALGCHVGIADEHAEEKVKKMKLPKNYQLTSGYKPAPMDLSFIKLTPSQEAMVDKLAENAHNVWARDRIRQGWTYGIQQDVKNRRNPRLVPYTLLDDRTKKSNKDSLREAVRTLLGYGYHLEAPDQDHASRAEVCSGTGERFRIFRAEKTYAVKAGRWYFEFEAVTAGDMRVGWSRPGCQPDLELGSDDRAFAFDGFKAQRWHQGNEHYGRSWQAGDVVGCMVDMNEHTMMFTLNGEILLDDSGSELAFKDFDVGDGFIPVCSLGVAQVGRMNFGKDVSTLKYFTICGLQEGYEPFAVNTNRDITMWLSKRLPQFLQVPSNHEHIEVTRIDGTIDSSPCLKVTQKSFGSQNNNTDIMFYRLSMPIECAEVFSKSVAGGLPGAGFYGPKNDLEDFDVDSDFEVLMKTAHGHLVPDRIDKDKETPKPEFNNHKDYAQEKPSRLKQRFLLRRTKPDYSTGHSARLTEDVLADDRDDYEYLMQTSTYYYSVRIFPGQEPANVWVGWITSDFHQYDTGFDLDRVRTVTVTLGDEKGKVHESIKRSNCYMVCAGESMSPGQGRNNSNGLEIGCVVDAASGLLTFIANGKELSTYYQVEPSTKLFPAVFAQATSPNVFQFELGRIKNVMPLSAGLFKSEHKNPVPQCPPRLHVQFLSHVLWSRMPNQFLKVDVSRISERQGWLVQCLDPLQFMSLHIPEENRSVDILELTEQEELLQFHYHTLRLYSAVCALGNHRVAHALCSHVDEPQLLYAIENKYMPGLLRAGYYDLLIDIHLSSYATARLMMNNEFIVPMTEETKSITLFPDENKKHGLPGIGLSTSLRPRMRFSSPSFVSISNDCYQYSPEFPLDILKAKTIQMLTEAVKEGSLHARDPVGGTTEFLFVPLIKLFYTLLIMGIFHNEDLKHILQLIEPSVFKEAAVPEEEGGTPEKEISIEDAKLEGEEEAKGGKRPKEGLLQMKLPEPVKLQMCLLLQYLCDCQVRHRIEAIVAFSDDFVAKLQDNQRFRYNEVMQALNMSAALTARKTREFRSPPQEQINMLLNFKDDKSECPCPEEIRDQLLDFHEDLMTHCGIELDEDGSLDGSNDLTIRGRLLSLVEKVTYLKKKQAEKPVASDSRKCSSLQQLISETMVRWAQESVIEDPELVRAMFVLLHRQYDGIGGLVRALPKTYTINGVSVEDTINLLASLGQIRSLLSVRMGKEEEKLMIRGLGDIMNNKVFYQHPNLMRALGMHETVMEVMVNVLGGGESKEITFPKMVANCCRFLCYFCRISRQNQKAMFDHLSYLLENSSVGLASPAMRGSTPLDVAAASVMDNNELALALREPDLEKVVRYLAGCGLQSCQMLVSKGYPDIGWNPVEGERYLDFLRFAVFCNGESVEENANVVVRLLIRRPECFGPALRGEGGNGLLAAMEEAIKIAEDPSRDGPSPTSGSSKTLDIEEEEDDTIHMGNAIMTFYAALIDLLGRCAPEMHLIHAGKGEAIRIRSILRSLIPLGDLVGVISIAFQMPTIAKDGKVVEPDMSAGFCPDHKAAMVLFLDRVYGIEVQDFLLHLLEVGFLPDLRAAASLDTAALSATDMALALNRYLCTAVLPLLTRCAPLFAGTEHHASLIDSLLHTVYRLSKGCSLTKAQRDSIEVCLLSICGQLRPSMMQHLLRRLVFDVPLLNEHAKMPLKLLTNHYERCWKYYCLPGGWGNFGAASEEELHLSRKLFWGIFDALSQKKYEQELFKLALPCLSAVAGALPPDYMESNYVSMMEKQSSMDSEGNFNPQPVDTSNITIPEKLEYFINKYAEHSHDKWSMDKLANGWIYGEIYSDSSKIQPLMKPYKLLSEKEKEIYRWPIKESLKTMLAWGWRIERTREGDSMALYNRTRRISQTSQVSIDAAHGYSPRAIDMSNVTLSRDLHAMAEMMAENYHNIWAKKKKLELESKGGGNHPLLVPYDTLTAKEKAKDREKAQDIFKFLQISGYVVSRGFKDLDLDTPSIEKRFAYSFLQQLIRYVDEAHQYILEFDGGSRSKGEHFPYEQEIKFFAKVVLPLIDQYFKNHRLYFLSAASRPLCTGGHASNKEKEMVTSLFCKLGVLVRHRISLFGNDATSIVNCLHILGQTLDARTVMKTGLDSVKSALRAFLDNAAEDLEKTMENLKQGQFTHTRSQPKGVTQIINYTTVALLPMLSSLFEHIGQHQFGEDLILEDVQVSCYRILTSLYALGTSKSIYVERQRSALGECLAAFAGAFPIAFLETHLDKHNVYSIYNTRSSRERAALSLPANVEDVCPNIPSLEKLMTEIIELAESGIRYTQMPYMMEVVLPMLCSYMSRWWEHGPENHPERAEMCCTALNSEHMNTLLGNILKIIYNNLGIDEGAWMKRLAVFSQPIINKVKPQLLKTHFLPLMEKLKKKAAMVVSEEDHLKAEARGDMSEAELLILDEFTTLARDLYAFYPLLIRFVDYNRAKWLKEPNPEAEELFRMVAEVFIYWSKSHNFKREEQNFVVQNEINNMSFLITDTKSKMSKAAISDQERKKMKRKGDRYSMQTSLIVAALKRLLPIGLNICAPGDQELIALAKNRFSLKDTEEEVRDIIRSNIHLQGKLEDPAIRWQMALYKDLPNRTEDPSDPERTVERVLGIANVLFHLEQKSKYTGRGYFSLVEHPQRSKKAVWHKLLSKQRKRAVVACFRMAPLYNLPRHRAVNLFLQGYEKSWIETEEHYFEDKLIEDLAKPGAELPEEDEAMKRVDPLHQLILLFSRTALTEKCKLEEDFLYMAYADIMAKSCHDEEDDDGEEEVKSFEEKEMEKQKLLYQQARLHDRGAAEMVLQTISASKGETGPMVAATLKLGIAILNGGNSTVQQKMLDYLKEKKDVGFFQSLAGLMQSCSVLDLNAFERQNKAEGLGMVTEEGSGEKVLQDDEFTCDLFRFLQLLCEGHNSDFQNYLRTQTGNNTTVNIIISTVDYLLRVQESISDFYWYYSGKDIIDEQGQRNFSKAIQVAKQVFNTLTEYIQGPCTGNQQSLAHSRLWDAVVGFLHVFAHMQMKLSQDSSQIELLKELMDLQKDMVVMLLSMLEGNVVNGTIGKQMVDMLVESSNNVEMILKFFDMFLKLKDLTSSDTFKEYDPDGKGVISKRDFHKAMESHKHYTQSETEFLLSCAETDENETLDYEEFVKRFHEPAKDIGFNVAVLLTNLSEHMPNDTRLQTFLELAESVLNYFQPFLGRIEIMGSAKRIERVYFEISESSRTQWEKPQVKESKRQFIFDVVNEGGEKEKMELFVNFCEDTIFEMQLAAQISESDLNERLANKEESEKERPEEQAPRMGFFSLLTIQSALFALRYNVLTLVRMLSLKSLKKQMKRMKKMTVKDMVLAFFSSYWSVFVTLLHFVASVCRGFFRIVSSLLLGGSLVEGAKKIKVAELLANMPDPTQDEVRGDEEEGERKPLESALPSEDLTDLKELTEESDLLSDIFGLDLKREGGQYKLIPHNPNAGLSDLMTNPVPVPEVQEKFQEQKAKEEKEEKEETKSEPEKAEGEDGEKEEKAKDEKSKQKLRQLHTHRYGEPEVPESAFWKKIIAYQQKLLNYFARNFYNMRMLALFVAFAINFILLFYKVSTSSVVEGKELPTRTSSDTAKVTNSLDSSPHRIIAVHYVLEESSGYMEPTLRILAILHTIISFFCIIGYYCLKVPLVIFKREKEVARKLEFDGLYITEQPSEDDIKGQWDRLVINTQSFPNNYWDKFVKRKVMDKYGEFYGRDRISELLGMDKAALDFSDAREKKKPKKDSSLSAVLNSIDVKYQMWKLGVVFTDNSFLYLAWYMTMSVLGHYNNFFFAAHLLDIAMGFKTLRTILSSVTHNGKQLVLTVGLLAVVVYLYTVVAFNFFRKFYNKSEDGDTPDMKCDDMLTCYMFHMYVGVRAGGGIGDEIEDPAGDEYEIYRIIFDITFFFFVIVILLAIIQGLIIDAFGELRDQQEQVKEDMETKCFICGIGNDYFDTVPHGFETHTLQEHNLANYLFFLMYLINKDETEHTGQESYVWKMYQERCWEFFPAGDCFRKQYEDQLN

Target: streptavidin-binding peptide (SBP)-tagged RyR2 (mouse) (UniProt E9Q401)
Experiment: co-IP; lysate of SBP-RyR2 HEK293 cells infected with TRIC-A or TRIC-B baculovirus; IP buffer (0.15 M NaCl, 20 mM MOPSO pH 7.0, 0.015% Tween-20) with 0.5% CHAPS, diluted to 0.1% CHAPS; anti-SBP monoclonal antibody (SB19-C4) or control IgG on Dynabeads protein G, 2 h at room temperature; TRIC-A and TRIC-B detected by Western blot

| binding | Binder |
| --- | --- |
| binds | trimeric intracellular cation channel TRIC-A (protein, UniProt Q3TMP8 1-298) MDLMSALSLGELALSFSRVPLFPVFDLSYFIVSIIYLKYEPGAVELSRRHPVASWLCAMLHCFGSYILADLLLGEPIIDYFSNSSSILLASGVWYLIFFCPLDLFYKCVCFLPVKLIFVAMKEVVRVRKIAVGIHHAHHHYHHGWFIMIATGWVKGSGVALLSNVEQLLRGVWKPETNEILHMSFPTKASLYGAILFTLQQTRWLPVSKASLIFVFTMFMVSCKVFLTATHSHSSPFDILEGYICPVLFGATWGGDHHHDNHGAPHGMGLGTQHSGLPAKAKEELGEGSRKKKTKKAD |
| binds | trimeric intracellular cation channel TRIC-B (protein, UniProt Q9DAV9 1-292) MEYPWDDLTLAFSRTSMFPFFDIAHYLVSVMALKQRPGAVAAAWNNPLASWLSAMLHCFGGGILSCMLLAESPLKFLTNHTNILLASSIWYIVFFCPRDLVSQGYSYQPIQFLAAGMKEVTRTWKIVGGVSDANSYYRNAWIVMIVVGWARGAGGAVVTACEQLLKGDWKPEGDEWLKMSFPCKITLLGSIMFTFQHTRHLAISKHDLMFLYTIFLVTIKVTMMMTKDTAVTLTPFEDTLTRMLFGRRQQQQFSSSEKKTEVKPSSNGSASSASKRGAEPSGGAKRHAKKED |
